# Data taken from patent US20210177823A1, “NEUROMODULATING COMPOSITIONS AND RELATED THERAPEUTIC METHODS FOR THE TREATMENT OF CANCER” (Flagship Pioneering Innovations V, Inc., priority 2016, published 2021).
# Some results were stated once for a whole list of compounds, not compound by compound.
# Tested on: pancreatic cancer cell lines (CFPAC, PANC-1, PL45, ASPC-1, CAPAN-1, CAPAN-2)
# Experiment: Cancer cell growth in low-serum spheroid culture, Cell Titer Glo readout
# Type: cell-based
# Settings: PANC-1, PL45, ASPC-1, and CAPAN-2
compound,measurement,value
C[C@@H](N)Cc1c[nH]cn1 [R-(−)-alpha-methylhistamine],increase of growth rate compared to untreated control,at least 5%
